Reference: publication PMC12040169 (PLOS Biology, 2025)
Some of the results follow.

Test system: T1, CTL2-GFP (C. trachomatis L2/434/Bu, GFP-expressing)
T1 construct: L2/434/Bu, GFP-expressing
Design: species or system HeLa; Intracellular C. trachomatis growth in HeLa cells, bulk GFP fluorescence relative to DMSO
Conditions: bulk GFP, single well; 28.5 h, 10 µM; inhibitor

SMILES | % of control remaining [%]
Cc1ccc(S(=O)(=O)N/N=C/C=C/c2ccc(N(C)C)cc2)cc1 [CBK265078] | 116.021
Cc1ccc(-c2nc3ccccc3c(=O)o2)cc1C [CBK288137] | 114.822
Cn1c(SCC(=O)Nc2ccc(N3CCOCC3)c(Cl)c2)nnc1-c1ccc(N)cc1 [CBK265777] | 134.51
COc1ccc(Sc2cc3n(c(=O)n2)CCc2cc(OC)c(OC)cc2-3)cc1 [CBK291186] | 128.916
COc1ccc2[nH]c3c(c2c1)CCN(C(=O)CNCC(=O)O)C31CCN(CCOc2ccccc2)C1 (centres unmarked) [CBK082782T] | 117.679
O=C(O)C1CCN(C(=O)CCC2CCCCC2)CC1 [CBK286804] | 148.306
OCCOc1cccc(OCCOc2nccnc2N2CCNCC2)c1 [CBK014339G] | 125.638
O=C(NC1CC1)c1cnc2ccc(F)cc2c1O [CBK307629] | 118.219
COc1ccc(CCN2C(=O)CC(N3CCN(c4ccccc4)CC3)C2=O)cc1OC (centres unmarked) [CBK262354] | 112.011
COc1cccc2sc(Nc3nnc(-c4cccs4)o3)nc12 [CBK287473] | 85.6397
COc1ccccc1NC(=O)C1=C(C)Nc2nnnn2C1c1ccc(OC)c([N+](=O)[O-])c1 (centres unmarked) [CBK293954] | 155.574
Cc1cc(C)c2c(N)c(C(=O)Nc3ccc(C(=O)O)cc3)sc2n1 [CBK300515] | 151.709
O=C(NNc1ccc([N+](=O)[O-])cc1)c1cccs1 [CBK261709] | 104.914
CCCCN(CC(N)=O)C(=O)c1sc(COc2ccc(Cl)cc2)nc1C [CBK304539] | 90.1798
COc1ccc(NCC(=O)N/N=C(\C)c2ccccc2O)cc1 [CBK263887] | 113.521
COCC(=O)N1CC[C@@H]2[C@H]1C(=O)N(c1ccc(OC)cc1)C(=O)N2Cc1ccccc1 [CBK289280] | 126.1
CC1(C)C(C(=O)O)C1C(=O)NCCc1ccc(O)cc1 (centres unmarked) [CBK286832] | 135.832
CCc1nc2ccc(C(=O)NCCN3CCOCC3)cn2c1N(C=O)Cc1ccc(OC)cc1 [CBK146625] | 100
NC(=O)c1ccc(NC(=O)c2cncc(-c3ccc(C(=O)N4CCOCC4)cc3)c2)cc1 [CBK160214] | 99.9842
CCOC(=O)C1(C2CCCCC2)CCN(C(=O)CC2CCCCC2)CC1 [CBK136919] | 111.393
Cc1sc2ncn(CC(=O)NCCc3c[nH]cn3)c(=O)c2c1C [CBK304685] | 86.1304
COc1ccc(S(=O)(=O)N2CCN(C(=O)c3ccc(C(C)(C)C)cc3)CC2)cc1 [CBK157251] | 73.6471
O=C(CC(CN1CCN(Cc2cccnc2)CC1)C(=O)O)Nc1ccc(Cl)cc1 (centres unmarked) [CBK286853] | 134.453
O=C(O)C1C2CCC(O2)C1C(=O)N1CCN(Cc2ccc(Cl)cc2)CC1 (centres unmarked) [CBK286943] | 101.331
CCOc1ccccc1NC(=O)CCCC(=O)O [CBK275986] | 98.7218

SMILES | % of control remaining [%]
O=C(CCC(=O)Nc1ccc(F)cc1)N/N=C/c1ccc(O)cc1O [CBK261766] | 107.588
Cc1cc(S(=O)(=O)Nc2ccnn2C(C)C)ccc1F [CBK283069] | 71.0791
CSCCN1CCN(c2nccnc2OC2CCCCC2)CC1 [CBK082843T] | 135.341
O=C(c1nc2ccccc2s1)C1CCNCC1 [CBK285397] | 106.225
O=C(O)c1ccc(N2C(=O)CC(N3CCC(Cc4ccccc4)CC3)C2=O)cc1 (centres unmarked) [CBK273484] | 105.038
Cc1ccc(CCNc2c([N+](=O)[O-])nn(-c3ccc4c(c3)OCCO4)[n+]2[O-])cc1 [CBK268225] | 62.9191
NC(=O)c1cccc(-c2nc(-c3cccs3)cnc2N)c1 [CBK064117] | 202.956
O=C1CSC(=O)N1CNc1ccc(Br)cc1 [CBK261819] | 109.413
COc1cc(-c2cc(N3CCN(Cc4cccnc4)CC3)n3nccc3n2)cc(OC)c1OC [CBK037063] | 138.587
Cc1cc(N(C)C)nc(SCc2n[nH]c(=S)o2)n1 [CBK006887] | 101.258
COCCc1noc(CC2CCN(c3ccc(Cl)c(C#N)n3)CC2)n1 [CBK304177] | 77.8722
O=C1CC[C@@H](NCc2cccs2)[C@H](c2cc(F)cc(F)c2)N1 [CBK283129] | 5.068
COc1ccc2c(c1)CCC1CN(C)N=C21 (centres unmarked) [CBK010890] | 111.459
COCCn1nc(C(=O)N2CCCc3ccccc32)ccc1=O [CBK305590] | 143.846
Cc1nc(C)n(CC2CCCN(Cc3cc(=O)n4ccccc4n3)C2)n1 (centres unmarked) [CBK304135] | 106.259
Cc1cn(CC(=O)N2CCC3(CCN(C(=O)Cc4c[nH]c5ccccc45)C3)C2)c(=O)[nH]c1=O (centres unmarked) [CBK131445] | 112.989
CCNC(=O)CNc1cc(C#N)ccc1C(F)(F)F [CBK306432] | 80.3789
CC1(O)CCCN(C(=O)c2c[nH]nc2-c2cc3ccccc3o2)C1 (centres unmarked) [CBK305555] | 123.012
Cc1cc(NS(=O)(=O)N2CCCCC2)no1 [CBK269947] | 124.036
COC(=O)c1cn([C@H]2CO[C@H]3[C@@H]2OC[C@@H]3NC(=O)Nc2ccc(OC)cc2)nn1 [CBK289500] | 108.189
CCOc1ccc(S(=O)(=O)N2CCCN(CC(C)C)CC2)c2cccnc12 [CBK062758] | 94.1754
CC(=O)Nc1cccc(-c2cncc(NCc3cccc(Cl)c3)n2)c1 [CBK065236] | 152.046
COc1cccc(C(=O)NCCC(=O)N2CCC3(CC2)CNC(=O)O3)c1 [CBK306803] | 136.189
CN(C)C(=O)c1cccc(-c2nccnc2NCCO)c1 [CBK036582] | 114.771
O=c1[nH]c2ncc(-c3cccc(Br)c3)nc2n1Cc1ccccn1 [CBK065020] | 72.2313

As entered above.
Value for CCOC(=O)C1(C2CCCCC2)CCN(C(=O)CC2CCCCC2)CC1 [CBK136919] under % of control remaining [%]: 111.393
Value for COc1cc(-c2cc(N3CCN(Cc4cccnc4)CC3)n3nccc3n2)cc(OC)c1OC [CBK037063] under % of control remaining [%]: 138.587
